# The list does not hold the whole screen: it gathers tests that were run many times, whatever their T/C, doses with no T/C, and many T/C values between a quarter and a half above the control. Further doses and runs are listed elsewhere. T/C is the treated group as % of the vehicle group. Some entries give survivors of the animals treated and no T/C: the source holds a T/C of zero for them, seemingly a mark for toxic or unscored doses. Some doses without a T/C left all or most animals alive at the check, yet need not have been tolerated: survival well below the control is almost never listed, so the zero probably covers shortened survival too. Survivors were counted at the toxicity check, usually on the fifth day, unless a day is given; later deaths do not show. Schedule codes are those of the source, taken here to give the interval after Q, in days (D) or hours (H), and the number of doses after X. Where survival is the endpoint, the PubChem record calls one and a half times the control and up active, and a quarter to a half above the control has no call in these data; cut-offs in other NCI protocols can differ. Some entries were tested several times; their values stand side by side, smallest first.
# Tested on: L1210 leukemia ip in BDF1 mice, survival T/C
# Experiment: NCI In Vivo Anticancer Drug Screen. Data for tumor model L1210 Leukemia (intraperitoneal) in B6D2F1 (BDF1) mice
# Conditions: T/C endpoint: mean survival time, higher T/C = longer survival
# [1] = dose: 50.0 mg/kg/injection, schedule: Q01DX009 (ip), vehicle: saline with Tween-80
# [2] = dose: 100.0 mg/kg/injection, schedule: Q04DX003 (ip), vehicle: saline with Tween-80
# [3] = dose: 100.0 mg/kg/injection, schedule: Q01DX005 (ip), vehicle: saline
# [4] = dose: 200.0 mg/kg/injection, schedule: Q01DX001 (ip), vehicle: saline with Tween-80
# [5] = dose: 400.0 mg/kg/injection, schedule: Q01DX009 (ip), vehicle: saline with Tween-80
# [6] = dose: 100.0 mg/kg/injection, schedule: Q01DX009 (ip), vehicle: saline with Tween-80
# [7] = dose: 200.0 mg/kg/injection, schedule: Q01DX009 (ip), vehicle: Klucel (hydroxypropylcellulose) (HPC)
# [8] = dose: 400.0 mg/kg/injection, schedule: Q01DX001 (ip), vehicle: Klucel (hydroxypropylcellulose) (HPC)
# [9] = dose: 400.0 mg/kg/injection, schedule: Q04DX003 (ip), vehicle: saline with Tween-80
# [10] = dose: 200.0 mg/kg/injection, schedule: Q04DX003 (ip), vehicle: saline with Tween-80
# [11] = dose: 100.0 mg/kg/injection, schedule: Q01DX009 (ip), vehicle: Klucel (hydroxypropylcellulose) (HPC)
structure (smiles),measurement,setting,value
CC(=O)OCC1OC(OC2C(COC(C)=O)OC(Sc3ccccc3)C(OC(C)=O)C2OC(C)=O)C(OC(C)=O)C(OC(C)=O)C1OC(C)=O (stereo not given),survivor count,"dose: 6.25 mg/kg/injection, schedule: Q01DX009 (ip), vehicle: saline with Tween-80",3 of 3
same,survivor count,"dose: 12.5 mg/kg/injection, schedule: Q01DX009 (ip), vehicle: saline with Tween-80",3 of 3
same,survivor count,[1],3 of 3
same,survivor count,[2],3 of 3
C[Se]c1ncnc2c(C3OC(CO)C(O)C3O)[nH]nc12 (stereo not given),survivor count,[3],0 of 6
same,survivor count,"dose: 200.0 mg/kg/injection, schedule: Q01DX005 (ip), vehicle: saline",0 of 6
CSCOC1C(COC(c2ccccc2)(c2ccccc2)c2ccccc2)OC(OCc2ccccc2)C(NC(C)=O)C1OCc1ccccc1 (stereo not given),survivor count,[4],3 of 3
C=C1C(=O)OCC2C(C(=O)O)=CC3C(C)C(C)=CC123 (stereo not given),survivor count,"dose: 80.0 mg/kg/injection, schedule: Q01DX009 (ip), vehicle: saline with Tween-80",5 of 6
O=C1c2ccccc2C(=O)N1CNc1ccc(Oc2ccc(Cl)cc2)cc1,survivor count,[5],5 of 6
CSC(=N)c1cccc(OCCCOc2ccccc2)c1,survivor count,[6],6 of 6
same,survivor count,[5],1 of 6
OCCC1CC1=C1CC1 (stereo not given),survivor count,[7],0 of 6
CCCCN=C1NC(N)=NC(C)(C)N1,survivor count,[8],0 of 3
O=C(Nc1ccccc1[N+](=O)[O-])C(=O)Nc1ccccc1[N+](=O)[O-],survivor count,[9],6 of 6
CCCCCCCCCCCCCCCCCC(=O)N/N=C\c1c(O)ccc2ccccc12,survivor count,[7],6 of 6
C=CCOCC(O)CN(CCCC)CCCC (stereo not given),survivor count,[6],0 of 6
CCC[CH2][Sn]1([CH2]CCC)[O]C(=O)C2C(C=C(C)C)C=C(C)C(C)C2C(=O)[O]1 (stereo not given),survivor count,"dose: 200.0 mg/kg/injection, schedule: Q01DX001 (ip), vehicle: saline",0 of 4
same,survivor count,"dose: 400.0 mg/kg/injection, schedule: Q01DX001 (ip), vehicle: saline",0 of 4
O=Cc1nccn1Cc1ccccc1,survivor count,"dose: 200.0 mg/kg/injection, schedule: Q01DX009 (ip), vehicle: saline with Tween-80",3 of 6
same,survivor count,[5],0 of 6
CCN(CC)CCCNc1ncnc2c1C(c1ccccc1)c1ccccc1-2 (stereo not given),survivor count,"dose: 80.0 mg/kg/injection, schedule: Q01DX001 (ip), vehicle: saline",1 of 4
CC(C)N(CCNc1nc(C(Cl)(Cl)Cl)nc2cc(Cl)ccc12)C(C)C,survivor count,[9],3 of 6
O=S(=O)(N1CCCCC1)N1CCNCC1,survivor count,[2],0 of 6
same,survivor count,[10],0 of 6
same,survivor count,[9],0 of 6
CCCCCCCCCCCCCCCCCC(=O)N/N=C/C=C/c1ccccc1,survivor count,[11],5 of 6
Cc1ncnc2c1ncn2C1OC(CO)C(O)C1O (stereo not given),T/C,"dose: 0.81 mg/kg/injection, schedule: Q01DX015 (ip), vehicle: saline, evaluated on day 5",131 % of control
same,T/C,"dose: 0.81 mg/kg/injection, schedule: Q01DX015 (ip), vehicle: saline, evaluated on day 45",131 % of control
N/N=C(\N)c1nn(C2OC(CO)C(O)C2O)c2ncnc(N)c12 (stereo not given),T/C,[3],125 % of control
same,T/C,"dose: 166.0 mg/kg/injection, schedule: Q01DX005 (ip), vehicle: saline",131 % of control
Cc1cc(C)c(C(Cl)(Cl)Cl)c(C)c1Cl,T/C,[1],125 % of control
same,survivor count,[9],4 of 6
Cc1noc2c1ncc[n+]2[O-],survivor count,[2],0 of 6
same,survivor count,[10],0 of 6
same,survivor count,[9],0 of 6
O=C(CN1CC1)NCc1ccc(CNC(=O)CN2CC2)cc1,T/C,"dose: 3.0 mg/kg/injection, schedule: Q01DX009 (ip), vehicle: carboxymethylcellulose (CMC)",137 % of control
same,T/C,"dose: 11.1 mg/kg/injection, schedule: Q01DX001 (ip), vehicle: carboxymethylcellulose (CMC)",125 % of control
same,T/C,"dose: 12.5 mg/kg/injection, schedule: Q01DX001 (ip), vehicle: carboxymethylcellulose (CMC)",142 % of control
same,T/C,"dose: 16.6 mg/kg/injection, schedule: Q01DX001 (ip), vehicle: carboxymethylcellulose (CMC), evaluated on day 30",129 % of control
same,T/C,"dose: 16.6 mg/kg/injection, schedule: Q01DX001 (ip), vehicle: carboxymethylcellulose (CMC), run until all animals had died",128 % of control
same,T/C,"dose: 25.0 mg/kg/injection, schedule: Q01DX001 (ip), vehicle: carboxymethylcellulose (CMC), evaluated on day 30",129 % of control
same,T/C,"dose: 25.0 mg/kg/injection, schedule: Q01DX001 (ip), vehicle: carboxymethylcellulose (CMC), run until all animals had died",130 and 146 % of control
same,survivor count,"dose: 37.5 mg/kg/injection, schedule: Q01DX009 (ip), vehicle: carboxymethylcellulose (CMC)",6 of 6
same,T/C,"dose: 50.0 mg/kg/injection, schedule: Q01DX001 (ip), vehicle: carboxymethylcellulose (CMC)",142 % of control
same,survivor count,"dose: 50.0 mg/kg/injection, schedule: Q01DX009 (ip), vehicle: carboxymethylcellulose (CMC)",6 of 6
CNC(=O)OCC1=C(OC)C(=O)C(OC)=CC1=O,survivor count,"dose: 100.0 mg/kg/injection, schedule: Q04DX003 (ip), vehicle: other",2 of 6
same,survivor count,"dose: 200.0 mg/kg/injection, schedule: Q04DX003 (ip), vehicle: other",0 of 6
same,survivor count,"dose: 400.0 mg/kg/injection, schedule: Q04DX003 (ip), vehicle: other",0 of 6
Cc1cccc2c(Nc3ccc(NS(C)(=O)=O)cc3)c3ccc([N+](=O)[O-])cc3nc12,survivor count,"dose: 37.5 mg/kg/injection, schedule: Q01DX009 (ip), vehicle: saline",6 of 6
same,T/C,"dose: 37.5 mg/kg/injection, schedule: Q04DX003 (ip), vehicle: saline",133 % of control
same,survivor count,"dose: 38.0 mg/kg/injection, schedule: Q01DX009 (ip), vehicle: Klucel (hydroxypropylcellulose) (HPC)",6 of 6
same,survivor count,"dose: 75.0 mg/kg/injection, schedule: Q01DX009 (ip), vehicle: saline",6 of 6
same,T/C,"dose: 75.0 mg/kg/injection, schedule: Q04DX003 (ip), vehicle: saline",131 % of control
same,survivor count,"dose: 150.0 mg/kg/injection, schedule: Q01DX009 (ip), vehicle: saline",5 of 6
same,T/C,"dose: 150.0 mg/kg/injection, schedule: Q04DX003 (ip), vehicle: saline",135 % of control
same,survivor count,"dose: 300.0 mg/kg/injection, schedule: Q01DX009 (ip), vehicle: saline",3 of 6
same,T/C,"dose: 300.0 mg/kg/injection, schedule: Q04DX003 (ip), vehicle: saline",129 % of control
same,survivor count,"dose: 600.0 mg/kg/injection, schedule: Q01DX001 (ip), vehicle: saline",2 of 6
COC(=O)c1cc(C)c(Br)c(OC)c1,survivor count,"dose: 400.0 mg/kg/injection, schedule: Q01DX009 (ip), vehicle: Klucel (hydroxypropylcellulose) (HPC)",0 of 6
CN(C)c1ccc(/C=[N+](\[O-])c2cccc(Cl)c2)cc1,survivor count,[8],2 of 6
CN(C)c1ccc(/C=C/c2cnccn2)cc1,survivor count,"dose: 50.0 mg/kg/injection, schedule: Q01DX009 (ip), vehicle: Klucel (hydroxypropylcellulose) (HPC)",6 of 6
same,survivor count,[11],6 of 6
same,survivor count,[7],2 of 6
same,survivor count,"dose: 400.0 mg/kg/injection, schedule: Q04DX003 (ip), vehicle: Klucel (hydroxypropylcellulose) (HPC)",6 of 6
C[C@H](C[P+](c1ccccc1)(c1ccccc1)c1ccccc1)[C@](OC(=O)c1ccccc1)(C(=O)c1ccccc1)c1ccccc1,survivor count,"dose: 100.0 mg/kg/injection, schedule: Q01DX001 (ip), vehicle: saline with Tween-80",0 of 6
same,survivor count,[4],0 of 6
same,survivor count,"dose: 400.0 mg/kg/injection, schedule: Q01DX001 (ip), vehicle: saline with Tween-80",0 of 6
CC(=O)Nc1ccc(CCCCc2cccc(C(=N)N)c2)cc1,survivor count,"dose: 75.0 mg/kg/injection, schedule: Q01DX009 (ip), vehicle: Klucel (hydroxypropylcellulose) (HPC)",0 of 6
same,survivor count,"dose: 115.0 mg/kg/injection, schedule: Q01DX009 (ip), vehicle: Klucel (hydroxypropylcellulose) (HPC)",0 of 6
same,survivor count,"dose: 170.0 mg/kg/injection, schedule: Q01DX009 (ip), vehicle: Klucel (hydroxypropylcellulose) (HPC)",0 of 6
